Data as given in PubChem BioAssay AID652272 (Drosophila RNAi Screening Center, 2013)
Purpose: 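Genes whose knock-down decreases or increases Hedgehog reporter output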 (primary screen). System: Drosophila clone 8 (Cl8) cells. Reagent: long dsRNA against Drosophila genes. Measured: 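Plate reader light from a firefly reporter under a ptc promoter fragment that responds to Hedgehog, with Renilla light as transfection reference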. Reading the numbers: firefly Hh reporter signal: higher = more ptc reporter light; Renilla reference signal: higher = more Renilla control light. Rule for the call: 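Called a hit if the two-replicate mean z-score lies below -2 or above +3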. Calls: active = hit: reporter lowered or raised; inactive = not a hit.
The deposit covers about 21,000 reagents; below is a random part of those that have a named target and a result. In the full data, 503 (2.4%) were called active. 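Raw plate light values, not normalised; calls rest on replicate z-scores that were not deposited; hits include reporter decreases as well as increases.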 A plus sign joins genes that one reagent is predicted to hit. No sequences are given here. The record does not give: the amount of reagent, the time to read-out.

| target gene | dsRNA | firefly Hh reporter signal, replicate 1 | firefly Hh reporter signal, replicate 2 | firefly Hh reporter signal, replicate 3 | Renilla reference signal, replicate 1 | Renilla reference signal, replicate 2 | call |
| --- | --- | --- | --- | --- | --- | --- | --- |
| Cpr49Aa | DRSC07197 | 93264 | 97251 | – | 2266 | 5378 | inactive |
| Saf6 | DRSC00633 | 79010 | 74603 | – | 3722 | 3365 | inactive |
| CG3880 | DRSC04428 | 1.07e5 | 65521 | – | 2692 | 6155 | inactive |
| mey | DRSC14468 | 1.21e5 | 64982 | – | 2744 | 2358 | inactive |
| CCT7 | DRSC16410 | 48867 | 92882 | – | 2512 | 2851 | inactive |
| Rab5 | DRSC00777 | 1.13e5 | 71905 | – | 3120 | 2290 | inactive |
| tow | DRSC10192 | 9841 | 8929 | – | 1623 | 816 | inactive |
| Tat | DRSC19602 | 68821 | 1.36e5 | – | 1314 | 5961 | inactive |
| mRpL18 | DRSC06142 | 95741 | 64608 | – | 1472 | 4813 | inactive |
| cola + swif | DRSC06826 | 1.05e5 | 64518 | – | 2794 | 5387 | inactive |
| CG13887 | DRSC08357 | 91610 | 90836 | – | 3531 | 3484 | inactive |
| ttv | DRSC07709 | 1.22e5 | 95648 | – | 4784 | 3300 | inactive |
| betaGlu | DRSC15419 | 81040 | 57572 | – | 2075 | 2080 | inactive |
| Cftr | DRSC15872 | 1.15e5 | 94944 | – | 5576 | 4073 | inactive |
| PPP4R2r | DRSC18695 | 1.62e5 | 6.88e5 | 3.23e5 | 4843 | 5874 | inactive |
| CG13311 | DRSC09982 | 44320 | 68840 | – | 4672 | 3312 | inactive |
| CG34155 | DRSC13991 | 5.20e5 | 1.95e5 | – | 26468 | 3773 | inactive |
| CG1529 | DRSC20515 | 1.10e5 | 4.32e5 | 1.42e5 | 4432 | 3115 | inactive |
| CG10839 | DRSC01965 | 1.30e5 | 56833 | – | 3562 | 5446 | inactive |
| TM9SF4 | DRSC01888 | 92537 | 94081 | – | 3740 | 3898 | inactive |
| Akap200 | DRSC01864 | 61955 | 33591 | – | 2901 | 1259 | inactive |
| CG13186 | DRSC06311 | 1.20e5 | 71937 | – | 2569 | 5328 | inactive |
| lncRNA:CR34047 | DRSC07857 | 5.39e5 | 1.58e5 | 82189 | 3792 | 4875 | inactive |
| CG13833 | DRSC14683 | 5.14e5 | 74193 | – | 25619 | 2328 | inactive |
| grh | DRSC05680 | 1.75e5 | 3.31e5 | – | 5250 | 14336 | inactive |
| grh | DRSC05683 | 76517 | 1.42e5 | – | 1885 | 4460 | inactive |
| grh | DRSC07624 | 1.15e5 | 89784 | – | 4724 | 4021 | inactive |
| grh | DRSC07625 | 79187 | 60215 | – | 1392 | 4629 | inactive |
| CG42565 | DRSC04154 | 75616 | 40717 | – | 2080 | 3913 | inactive |
| Ald2 | DRSC14730 | 1.51e5 | 19436 | – | 11751 | 768 | active |
| Ald2 | DRSC15799 | 4.44e5 | 90104 | – | 27162 | 1893 | inactive |
| Ns1 | DRSC15529 | 49873 | 54512 | – | 1605 | 1989 | inactive |
| bug | DRSC07137 | 86550 | 47510 | – | 4307 | 2010 | inactive |
| Elp4 | DRSC02999 | 53776 | 37466 | – | 1057 | 3606 | inactive |
| gol | DRSC04689 | 79529 | 72752 | – | 3307 | 2800 | inactive |
| CG4582 | DRSC15605 | 4.51e5 | 1.01e5 | – | 23741 | 2829 | inactive |
| dj-1beta | DRSC14599 | 84688 | 1.06e5 | – | 2681 | 5508 | inactive |
| CG1910 | DRSC15400 | 1.09e5 | 89556 | – | 2504 | 2502 | inactive |
| CG31224 | DRSC15272 | 3.80e5 | 82992 | – | 3641 | 3641 | inactive |
| CG31224 | DRSC16290 | 1.18e5 | 1.00e5 | – | 3753 | 3888 | inactive |

2 of these entries in another layout.
target gene,dsRNA,"firefly Hh reporter signal, replicate 1","firefly Hh reporter signal, replicate 2","firefly Hh reporter signal, replicate 3","Renilla reference signal, replicate 1","Renilla reference signal, replicate 2",call
CG31224,DRSC15272,3.80e5,82992,,3641,3641,inactive
CG31224,DRSC16290,1.18e5,1.00e5,,3753,3888,inactive
